Assay results taken from US20180321243A1 (UNIVERSITY OF SASKATCHEWAN, published 2018).
Results are given in words; binding and its absence hold for the method and conditions named. Some binding calls cover weakened binding; strength is not graded here.

Amino acid sequences for entries named in this document (tags omitted). Residues count along the entry.
UniProt O14672, residues 214-672: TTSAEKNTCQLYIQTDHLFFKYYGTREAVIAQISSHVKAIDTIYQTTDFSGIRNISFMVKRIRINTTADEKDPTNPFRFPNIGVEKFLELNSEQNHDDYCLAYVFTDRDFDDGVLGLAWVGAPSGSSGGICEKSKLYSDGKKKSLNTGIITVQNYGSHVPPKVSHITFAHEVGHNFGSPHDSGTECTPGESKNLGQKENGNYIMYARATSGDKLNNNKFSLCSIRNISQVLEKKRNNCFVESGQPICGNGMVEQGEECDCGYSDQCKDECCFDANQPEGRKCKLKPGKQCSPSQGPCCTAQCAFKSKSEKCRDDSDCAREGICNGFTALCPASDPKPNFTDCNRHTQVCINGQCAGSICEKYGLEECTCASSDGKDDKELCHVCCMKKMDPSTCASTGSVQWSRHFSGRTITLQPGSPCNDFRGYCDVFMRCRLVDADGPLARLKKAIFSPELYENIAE

Columns and labels:
[1] = biological target: recombinant human ADAM10 (Biomatik, #RPU140010) (human) (UniProt O14672); assay: phage ELISA, plate-adsorbed ADAM10
[2] = biological target: recombinant human ADAM10 (Biomatik, #RPU140010) (human) (UniProt O14672); assay: BLI, purified scFv, ADAM10 in solution
[3] = biological target: recombinant human ADAM10 (Biomatik, #RPU140010) (human) (UniProt O14672); assay: biolayer interferometry, unlabeled scFv coupled to AR2G biosensor, ADAM10 in solution
[4] = biological target: recombinant human ADAM10 (Biomatik, #RPU140010) (human) (UniProt O14672); assay: BLI epitope mapping, unlabeled scFv-B2 at 500 nM on ADAM10 held by biotin-scFv-B7 (FIG. 12B)
[5] = biological target: recombinant human ADAM10 (Biomatik, #RPU140010) (human) (UniProt O14672); assay: biolayer interferometry, epitope mapping: unlabeled scFv-B2 (500 nM) on ADAM10 captured by biotin-scFv-B9
[6] = biological target: recombinant human ADAM10 (Biomatik, #RPU140010) (human) (UniProt O14672); assay: biolayer interferometry, epitope mapping: unlabeled scFv-B2 (500 nM) on ADAM10 captured by biotin-scFv-B7, after a +B9 step
[7] = biological target: recombinant human ADAM10 (Biomatik, #RPU140010) (human) (UniProt O14672); assay: BLI epitope mapping, unlabeled scFv-B7 at 500 nM on ADAM10 held by biotin-scFv-B2 (FIG. 12A)
[8] = biological target: recombinant human ADAM10 (Biomatik, #RPU140010) (human) (UniProt O14672); assay: biolayer interferometry, epitope mapping: unlabeled scFv-B7 (500 nM) on ADAM10 captured by biotin-scFv-B2, after a +B9 step
[9] = biological target: recombinant human ADAM10 (Biomatik, #RPU140010) (human) (UniProt O14672); assay: biolayer interferometry, epitope mapping: unlabeled scFv-B7 (500 nM) on ADAM10 captured by biotin-scFv-B9, after a +B2 step

Measured: binding

B1: scFv-B2 (scFv)
scFv: SDIQMTQSPSSLSASVGDRVTITCRASQGISNYLAWYQQKPGKAPKLLIYAASSLQSGVPSRFSGSRSGTDFTLTISSLQPEDFATYYCQQSYYLPLTFGQGTKVEIKGGGSGGGSGGGSGGGSEVQLVESGGGLVQPGGSLRLSCAASGFTFSSYGMHWVRQAPGKGLEWVAVISYDGSNKYYADSVKGRFTISRDNSKNTLYLQMNSLRAEDTAVYYCARWPAHFSHSHSSYYYYGFDVWGQGTLVTVSS
notes: Synthetic human scFv, order VL (IgKV1-16 framework) - (G3S)4 linker - VH (IgHV3-30 framework); Expressed in E. coli BL-21 and purified by protein L chromatography
not listed: [7] | [8] | [9]
binds: all other assays above

B2: scFv-B7 (scFv)
scFv: SDIQMTQSPSSLSASVGDRVTITCRASQGISNYLAWYQQKPGKAPKLLIYAASSLQSGVPSRFSGSRSGTDFTLTISSLQPEDFATYYCQQVSSWPLTFGQGTKVEIKGGGSGGGSGGGSGGGSEVQLVESGGGLVQPGGSLRLSCAASGFTFSSYGMHWVRQAPGKGLEWVAVISYDGSNKYYADSVKGRFTISRDNSKNTLYLQMNSLRAEDTAVYYCARYPPHGFDYWGQGTLVTVSS
notes: as for B1
not listed: [4] | [5] | [6]
binds: all other assays above

B3: scFv-B9 (scFv)
scFv: SDIQMTQSPSSLSASVGDRVTITCRASQGISNYLAWYQQKPGKAPKLLIYAASSLQSGVPSRFSGSRSGTDFTLTISSLQPEDFATYYCQQLYHPPLTFGQGTKVEIKGGGSGGGSGGGSGGGSEVQLVESGGGLVQPGGSLRLSCAASGFTFSSYGMHWVRQAPGKGLEWVAVISYDGSNKYYADSVKGRFTISRDNSKNTLYLQMNSLRAEDTAVYYCARYSPYHYSHSVSYYYYGFDVWGQGTLVTVSS
notes: as for B1
binds: [1] | [2] | [3]
